# Results reported in article PMC5775426.
# B1: B42-SlCat2 FL (full length Cat2 in pJG4-5 vector) (enzyme, UniProt Q9XHH3 1-492)
# chain: MDPYKYRPSSAFNSPFCTTNSGAPVFNNNSSLTVGARGPVLLEDYHLVEKLANFDRERIAERVVHARGASAKGFFEVTHDIAHLTCADFLRAPGVQTPVIVRFSTVIHERGSPETLRDPRGFAVKFYTREGNFDLVGNNFPVFFIRDGMKFPDMVHALKPNPKSHIQENWRVLDFFSHHPESLHMFTFLFDDIGIPQDYRHMDGSGVHTFTLINRAGKSTYVKFHWKPTCGVKSLLEEKAIRVGGANHSHATQDLYDSIAAGNYPEWKPSIQIMGPEHEDKFDFDPLDVTKTWPEDILPLQPVGRLVLNKNIDNFLYMNEQLAFCPSIVVPGVYYSDDKMLQTRIFSYSDTQRYRLGPNYLQLPANAPKCAHHNNHYDGSMNFMHRDEEIDYFPSRYDQVRHAEVYPIPSTVCSGKREKCIIQKENNFKQPGERYRSFTPDRQERFIRRWVEALSDPRITYEIRSIWITYWSQADKSLGQKLASRLNVRPSI
# B2: SlCat2-nYFP (Cat2 in pSPYNE(R)173 vector) (enzyme, UniProt Q9XHH3 1-492)
# chain: MDPYKYRPSSAFNSPFCTTNSGAPVFNNNSSLTVGARGPVLLEDYHLVEKLANFDRERIAERVVHARGASAKGFFEVTHDIAHLTCADFLRAPGVQTPVIVRFSTVIHERGSPETLRDPRGFAVKFYTREGNFDLVGNNFPVFFIRDGMKFPDMVHALKPNPKSHIQENWRVLDFFSHHPESLHMFTFLFDDIGIPQDYRHMDGSGVHTFTLINRAGKSTYVKFHWKPTCGVKSLLEEKAIRVGGANHSHATQDLYDSIAAGNYPEWKPSIQIMGPEHEDKFDFDPLDVTKTWPEDILPLQPVGRLVLNKNIDNFLYMNEQLAFCPSIVVPGVYYSDDKMLQTRIFSYSDTQRYRLGPNYLQLPANAPKCAHHNNHYDGSMNFMHRDEEIDYFPSRYDQVRHAEVYPIPSTVCSGKREKCIIQKENNFKQPGERYRSFTPDRQERFIRRWVEALSDPRITYEIRSIWITYWSQADKSLGQKLASRLNVRPSI
# B3: SlCat2-cYFP (Cat2 in pSPYNE173 vector) (enzyme, UniProt Q9XHH3 1-492)
# chain: MDPYKYRPSSAFNSPFCTTNSGAPVFNNNSSLTVGARGPVLLEDYHLVEKLANFDRERIAERVVHARGASAKGFFEVTHDIAHLTCADFLRAPGVQTPVIVRFSTVIHERGSPETLRDPRGFAVKFYTREGNFDLVGNNFPVFFIRDGMKFPDMVHALKPNPKSHIQENWRVLDFFSHHPESLHMFTFLFDDIGIPQDYRHMDGSGVHTFTLINRAGKSTYVKFHWKPTCGVKSLLEEKAIRVGGANHSHATQDLYDSIAAGNYPEWKPSIQIMGPEHEDKFDFDPLDVTKTWPEDILPLQPVGRLVLNKNIDNFLYMNEQLAFCPSIVVPGVYYSDDKMLQTRIFSYSDTQRYRLGPNYLQLPANAPKCAHHNNHYDGSMNFMHRDEEIDYFPSRYDQVRHAEVYPIPSTVCSGKREKCIIQKENNFKQPGERYRSFTPDRQERFIRRWVEALSDPRITYEIRSIWITYWSQADKSLGQKLASRLNVRPSI
# Legend:
# [1] = biological target: LexA-AV2Δ10N (AV2 lacking 10 amino acids in pEG202 vector) (Tomato leaf curl Palampur virus); assay: two-hybrid; LexA bait (pEG202) and B42 prey (pJG4-5) in yeast EGY48; library screen and pairwise test; growth on YNB (gal) -ura -trp -his -leu and β-X-gal assay
# [2] = biological target: bicoid homeodomain (pRHFM1); assay: as above
# [3] = biological target: AC4-cYFP (AC4 in pSPYCE(M) vector) (Tomato leaf curl Palampur virus); assay: split reporter; BiFC with YFP halves in N. benthamiana leaves, co-infiltrated with P19; confocal microscopy after 72 hours
# [4] = biological target: AV2-cYFP (AV2 in pSPYCE(M) vector) (Tomato leaf curl Palampur virus); assay: as above
# [5] = biological target: AV2-cYFP (AV2 in pSPYCE(M) vector) (Tomato leaf curl Palampur virus); assay: co-IP; extracts of N. benthamiana leaves co-expressing the BiFC constructs; 200 µg extract with 2 µg anti-HA antibody 6 h, protein G magnetic beads 10 h at 4 °C; blot with anti-cMyc
# [6] = biological target: AV2-nYFP (AV2 in pSPYCE(MR) vector) (Tomato leaf curl Palampur virus); assay: split reporter; BiFC with YFP halves in N. benthamiana leaves, co-infiltrated with P19; confocal microscopy after 72 hours
binder,measurement,setting,value
B1,binding,[1],binds
same,binding,[2],no binding
B2,binding,[3],no binding
same,binding,[4],binds
same,binding,[5],binds
B3,binding,[6],binds

# No constants are given. Whether binding was seen depends on the method and setting. For part of these data: Binding can be weak; no strength is given. For part of these data: In cells and extracts the contact can be indirect. For part of these data: Where a sequence is shown, tags or fusion partners need not be part of it.
